Variants at the background level are over-represented here.
Assays:
biotinyl-Trp-oxazolone = experiment: self-aminoacylation, catalytic enhancement (BWO) (fold over background); higher = more active; k-Seq, kA / k0A0; sequences stand for … in GGGAAUGGAUCCACAUCUACGAAUUC…UUCACUGCAGACUUGACGAAGCUG
Method in brief: (§1)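 Mutagenized RNA pools with a 21-nt variable region (0.43 μM) were reacted with each biotinyl-aminoacyl-oxazolone at 2–1250 μM for 90 minutes at room temperature, in 50 μL HEPES/NaCl/KCl/MgCl2/CaCl2 buffer containing 5% acetonitrile at pH 6.9–7.0. RNA captured on streptavidin was quantified by triplicate qPCR and by Illumina sequencing. The fraction reacted for each sequence was fit to a pseudo-first-order model with bootstrapping, and catalytic enhancement is the median kA divided by the uncatalyzed rate, taken as the low-activity peak of a bimodal Gaussian fit.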

biotinyl-Met-oxazolone = experiment: self-aminoacylation, catalytic enhancement (BMO) (fold over background); higher = more active; k-Seq, kA / k0A0; sequences stand for … in GGGAAUGGAUCCACAUCUACGAAUUC…UUCACUGCAGACUUGACGAAGCUG
Method in brief: as §1

biotinyl-Ile-oxazolone = experiment: self-aminoacylation, catalytic enhancement (BIO) (fold over background); higher = more active; k-Seq, kA / k0A0; sequences stand for … in GGGAAUGGAUCCACAUCUACGAAUUC…UUCACUGCAGACUUGACGAAGCUG
Method in brief: as §1

biotinyl-Val-oxazolone = experiment: self-aminoacylation, catalytic enhancement (BVO) (fold over background); higher = more active; k-Seq, kA / k0A0; sequences stand for … in GGGAAUGGAUCCACAUCUACGAAUUC…UUCACUGCAGACUUGACGAAGCUG
Method in brief: as §1

biotinyl-Leu-oxazolone = experiment: self-aminoacylation, catalytic enhancement (BLO) (fold over background); higher = more active; k-Seq, kA / k0A0; sequences stand for … in GGGAAUGGAUCCACAUCUACGAAUUC…UUCACUGCAGACUUGACGAAGCUG
Method in brief: as §1

biotinyl-Phe-oxazolone = experiment: self-aminoacylation, catalytic enhancement (BFO) (fold over background); higher = more active; k-Seq, kA / k0A0; sequences stand for … in GGGAAUGGAUCCACAUCUACGAAUUC…UUCACUGCAGACUUGACGAAGCUG
Method in brief: as §1

| Sequence | self-aminoacylation (biotinyl-Trp-oxazolone) | self-aminoacylation (biotinyl-Met-oxazolone) | self-aminoacylation (biotinyl-Ile-oxazolone) | self-aminoacylation (biotinyl-Val-oxazolone) | self-aminoacylation (biotinyl-Leu-oxazolone) | self-aminoacylation (biotinyl-Phe-oxazolone) |
| --- | --- | --- | --- | --- | --- | --- |
| AUUCCCCUGGUCAUCGCGUGA [Fam2.1 aminoacylation ribozyme variant] | 26.8 | 22.1 | 12.2 | 15 | 28.2 | 213 |
| AAGUUUUCUAAUAGGCGCAAG [Fam3.1 aminoacylation ribozyme variant] | 1.26 | 1.46 | 1.47 | 1.17 | 1.13 | 1.94 |
| CCAGACUUCUAGCAAUCGGUC [Fam1B.1 aminoacylation ribozyme variant] | 0.774 | 0.901 | 1.11 | 0.965 | 0.921 | 0.821 |
| CCACACUUCAAGCAUUCGGUA [Fam1B.1 aminoacylation ribozyme variant] | 1.97 | 1.76 | 1.95 | 2.44 | 1.7 | 1.39 |
| AUUACCCUGGUUAUCGAGUGG [Fam2.1 aminoacylation ribozyme variant] | 1.49 | 1.57 | 1.03 | 1.44 | 1.94 | 1.61 |
| AAGUGUGCUAAUAGUCGCAAU [Fam3.1 aminoacylation ribozyme variant] | 2.01 | 1.24 | 1.66 | 1.6 | 1.63 | 1.46 |
| AUUACCCUGGUAAUCGAGCGA [Fam2.1 aminoacylation ribozyme variant] | 1.01 | 1.77 | 0.97 | 1.25 | 1.75 | 1.15 |
| CUACUUCAAACAAUGAGUCUG [Fam1A.1 aminoacylation ribozyme variant] | 0.459 | 0.8 | 0.713 | 0.753 | 0.695 | 1.09 |
| AUUACGCUGGUCAUCCAGUGA [Fam2.1 aminoacylation ribozyme variant] | 4.31 | 3.63 | 2.27 | 1.96 | 3.99 | 12.8 |
| CUACUUCAAACAAGCGAUCUG [Fam1A.1 aminoacylation ribozyme variant] | 0.311 | 0.566 | 0.685 | 0.715 | 0.567 | 0.625 |
| AAGUAUGCUAAUGGUCGCAAG [Fam3.1 aminoacylation ribozyme variant] | 0.826 | 0.914 | 0.913 | 0.958 | 0.846 | 1.01 |
| AAGUUUGCUAAUAGUCGAGAG [Fam3.1 aminoacylation ribozyme variant] | 1.61 | 1.17 | 1.28 | 1.17 | 0.989 | 1.97 |
| AUUCACCUAGGCCAGCGGGUG [Fam2.2 aminoacylation ribozyme variant] | 3.78 | 4.21 | 3.59 | 4.07 | 4.78 | 24.8 |
| AAGUUUUCUAAUAGUCACAAG [Fam3.1 aminoacylation ribozyme variant] | 1.87 | 1.25 | 1.64 | 1.64 | 1.4 | 2.39 |
| AAGUCUGUUAAUAGUCGCAAG [Fam3.1 aminoacylation ribozyme variant] | 0.936 | 1.03 | 1.14 | 1.03 | 1.01 | 1.04 |
| AUUCACCUAGGUCAUCGGUGG [Fam2.2 aminoacylation ribozyme variant] | 1.81 | 1.97 | 1.5 | 1.52 | 1.85 | 4.26 |
| AUUACCCUGGACGUCGAGUGA [Fam2.1 aminoacylation ribozyme variant] | 0.545 | 1.02 | 0.737 | 0.826 | 0.911 | 0.734 |
| CCACACUUUAAGAAAUCGGUC [Fam1B.1 aminoacylation ribozyme variant] | 0.727 | 0.607 | 0.841 | 0.663 | 0.782 | 0.835 |
| CCACACUUCAUGCACUCGGUC [Fam1B.1 aminoacylation ribozyme variant] | 0.663 | 0.689 | 0.887 | 0.862 | 0.762 | 0.53 |
| AAGUUUGCUAAGAGUCGCGAG [Fam3.1 aminoacylation ribozyme variant] | 1.85 | 1.23 | 1.07 | 1.34 | 1.35 | 0.783 |
| CUACUUCAAACGAUCGGUCUC [Fam1A.1 aminoacylation ribozyme variant] | 0.792 | 0.769 | 0.682 | 0.659 | 0.611 | 1.01 |
| AAGUUUGCUAAUAGUCGCACA [Fam3.1 aminoacylation ribozyme variant] | 1.12 | 1.37 | 1.45 | 1.29 | 1.15 | 1.64 |
| CUACUUCAAACAAUUGGGCUG [Fam1A.1 aminoacylation ribozyme variant] | 1.02 | 1 | 1.34 | 1.24 | 1.18 | 0.977 |
| AUUACGCUGGUCAUCGAAUGA [Fam2.1 aminoacylation ribozyme variant] | 1.65 | 1.92 | 1.96 | 1.89 | 1.81 | 1.24 |
| AUUCACCUAGGUCAUAGGUUG [Fam2.2 aminoacylation ribozyme variant] | 0.441 | 0.846 | 0.63 | 0.77 | 0.9 | 0.595 |
| CUACUUCAAACAAUUGGUUUG [Fam1A.1 aminoacylation ribozyme variant] | 0.708 | 0.676 | 0.757 | 0.7 | 0.721 | 0.803 |

| Sequence | self-aminoacylation (biotinyl-Trp-oxazolone) | self-aminoacylation (biotinyl-Met-oxazolone) | self-aminoacylation (biotinyl-Ile-oxazolone) | self-aminoacylation (biotinyl-Val-oxazolone) | self-aminoacylation (biotinyl-Leu-oxazolone) | self-aminoacylation (biotinyl-Phe-oxazolone) |
| --- | --- | --- | --- | --- | --- | --- |
| CUACUUUAAACAAGCGGUCUG [Fam1A.1 aminoacylation ribozyme variant] | 0.618 | 0.921 | 0.961 | 0.955 | 1.06 | 0.844 |
| AAGUUUCCUUAUAGUCGCAAG [Fam3.1 aminoacylation ribozyme variant] | 1.53 | 1.71 | 1.79 | 1.67 | 1.65 | 2.75 |
| CCACACUUUACGCAAUCGGUC [Fam1B.1 aminoacylation ribozyme variant] | 1.11 | 0.856 | 0.976 | 1.03 | 0.946 | 0.86 |
| CUCCUUCAAACAAUAGGUCUG [Fam1A.1 aminoacylation ribozyme variant] | 0.736 | 0.501 | 0.667 | 0.731 | 0.59 | 1.34 |
| AAGUUUUCUAAUAUUCGCAAG [Fam3.1 aminoacylation ribozyme variant] | 1.32 | 1.44 | 1.71 | 1.35 | 1.23 | 1.34 |
| CUACUUCAAACAAGAGGUCUG [Fam1A.1 aminoacylation ribozyme variant] | 0.528 | 1 | 0.942 | 0.945 | 0.758 | 0.94 |
| AAGUUUGCUAAUCGUCGCUAG [Fam3.1 aminoacylation ribozyme variant] | 0.871 | 0.844 | 0.976 | 0.834 | 0.87 | 1.07 |
| CUCCUUCAAACAAUCGGCCUG [Fam1A.1 aminoacylation ribozyme variant] | 61.7 | 2.63 | 2.04 | 2.15 | 3.39 | 131 |
| AUUCACCUAGGUCAUCCGGUA [Fam2.2 aminoacylation ribozyme variant] | 1.87 | 2.17 | 2.36 | 2.3 | 2.3 | 6.52 |
| AAGUUUGCUAAAAGACGCAAG [Fam3.1 aminoacylation ribozyme variant] | 0.53 | 0.43 | 0.532 | 0.713 | 0.412 | 0.761 |
| UCACACUUCUAGCAAUCGGUC [Fam1B.1 aminoacylation ribozyme variant] | 0.741 | 0.604 | 0.788 | 0.748 | 0.628 | 0.768 |
| AUUAUCCUGGACAUCGAGUGA [Fam2.1 aminoacylation ribozyme variant] | 8.19 | 6.78 | 2.88 | 3.06 | 6.24 | 34.7 |
| AAGUUUGCUAAUCGUCCCAAG [Fam3.1 aminoacylation ribozyme variant] | 0.731 | 0.783 | 0.884 | 0.842 | 0.881 | 1.29 |
| CCACAGUUCAAGCGAUCGGUC [Fam1B.1 aminoacylation ribozyme variant] | 0.913 | 1.59 | 1.32 | 1.75 | 1.9 | 1.5 |
| AAAUUCGCUAAUAGUCGCAAG [Fam3.1 aminoacylation ribozyme variant] | 2.09 | 2.31 | 2.89 | 1.82 | 2.19 | 2.65 |
| AUUCACCUAGGUCAUAGGGUC [Fam2.2 aminoacylation ribozyme variant] | 0.615 | 0.446 | 0.642 | 0.693 | 0.449 | 0.533 |
| CCACGCUUCGAGCAAUCGGUC [Fam1B.1 aminoacylation ribozyme variant] | 1.14 | 0.984 | 1.08 | 1.43 | 0.853 | 0.943 |
| AAGGUUGCAAAUAGUCGCAAG [Fam3.1 aminoacylation ribozyme variant] | 1.66 | 1.02 | 1.41 | 1.08 | 1.2 | 1.44 |
| AACCUUGCUAAUAGUCGCAAG [Fam3.1 aminoacylation ribozyme variant] | 1.91 | 1.58 | 1.56 | 1.62 | 1.55 | 1.51 |
| AUUCAUCUUGGUCAUCGGGUG [Fam2.2 aminoacylation ribozyme variant] | 7.39 | 7.46 | 4.97 | 4.56 | 9.58 | 50.1 |
| CUACUUUAAACAAUCCGUCUG [Fam1A.1 aminoacylation ribozyme variant] | 0.636 | 0.812 | 0.82 | 0.784 | 0.737 | 0.57 |
| AUUACCACGGUCAUCGAGUGA [Fam2.1 aminoacylation ribozyme variant] | 8.11 | 6.51 | 3.48 | 3.66 | 5.96 | 38.3 |
| CUAAUUCAAACAAUCGGUCCG [Fam1A.1 aminoacylation ribozyme variant] | 0.513 | 0.575 | 0.553 | 0.539 | 0.732 | 0.604 |
| CCACACUUCAAGCCAUCAGUC [Fam1B.1 aminoacylation ribozyme variant] | 0.625 | 0.695 | 0.81 | 0.769 | 0.892 | 1.07 |
| CCACACUUCAAGCACUCAGUC [Fam1B.1 aminoacylation ribozyme variant] | 0.587 | 0.686 | 0.704 | 0.816 | 0.725 | 1.2 |

From the supplement of paper PMC9233669
